# Measurements published in article doi:10.1101/2020.09.25.312678.
# Amino acid sequences for entries named in this document (tags omitted).
# UniProt O15169, whole entry: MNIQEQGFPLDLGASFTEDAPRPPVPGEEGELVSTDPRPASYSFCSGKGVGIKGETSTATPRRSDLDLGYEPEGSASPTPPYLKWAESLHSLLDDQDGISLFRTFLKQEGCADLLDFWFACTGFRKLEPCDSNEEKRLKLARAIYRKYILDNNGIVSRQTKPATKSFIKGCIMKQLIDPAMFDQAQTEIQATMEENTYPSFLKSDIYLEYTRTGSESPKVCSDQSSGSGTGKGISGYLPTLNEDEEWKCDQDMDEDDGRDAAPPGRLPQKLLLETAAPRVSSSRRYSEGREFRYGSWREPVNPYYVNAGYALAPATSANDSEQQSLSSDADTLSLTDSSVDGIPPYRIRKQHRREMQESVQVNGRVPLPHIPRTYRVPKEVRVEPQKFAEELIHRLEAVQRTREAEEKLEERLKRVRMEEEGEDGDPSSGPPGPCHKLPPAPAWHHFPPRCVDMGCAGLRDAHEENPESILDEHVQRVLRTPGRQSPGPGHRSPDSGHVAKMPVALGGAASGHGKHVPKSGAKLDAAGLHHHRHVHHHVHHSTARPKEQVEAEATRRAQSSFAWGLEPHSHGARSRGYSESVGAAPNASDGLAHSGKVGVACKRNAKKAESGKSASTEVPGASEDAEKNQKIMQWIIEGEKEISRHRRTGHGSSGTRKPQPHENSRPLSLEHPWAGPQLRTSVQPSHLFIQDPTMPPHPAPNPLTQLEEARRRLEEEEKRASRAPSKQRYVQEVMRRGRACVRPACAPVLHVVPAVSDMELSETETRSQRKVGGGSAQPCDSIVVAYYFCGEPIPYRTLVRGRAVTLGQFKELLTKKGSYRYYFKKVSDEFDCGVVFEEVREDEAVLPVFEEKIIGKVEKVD
# UniProt P49841, whole entry: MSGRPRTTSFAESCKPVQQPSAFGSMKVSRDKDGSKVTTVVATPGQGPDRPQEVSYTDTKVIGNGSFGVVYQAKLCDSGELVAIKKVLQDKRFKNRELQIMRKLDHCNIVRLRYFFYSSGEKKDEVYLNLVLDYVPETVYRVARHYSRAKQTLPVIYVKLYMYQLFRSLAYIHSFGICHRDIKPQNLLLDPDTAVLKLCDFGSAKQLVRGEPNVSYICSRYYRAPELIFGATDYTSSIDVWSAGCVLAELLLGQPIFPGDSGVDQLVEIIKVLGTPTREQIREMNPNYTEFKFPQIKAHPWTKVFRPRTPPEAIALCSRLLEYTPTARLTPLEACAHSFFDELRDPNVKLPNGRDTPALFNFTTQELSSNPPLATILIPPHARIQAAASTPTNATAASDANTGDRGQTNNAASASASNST
# UniProt Q9Y297, whole entry: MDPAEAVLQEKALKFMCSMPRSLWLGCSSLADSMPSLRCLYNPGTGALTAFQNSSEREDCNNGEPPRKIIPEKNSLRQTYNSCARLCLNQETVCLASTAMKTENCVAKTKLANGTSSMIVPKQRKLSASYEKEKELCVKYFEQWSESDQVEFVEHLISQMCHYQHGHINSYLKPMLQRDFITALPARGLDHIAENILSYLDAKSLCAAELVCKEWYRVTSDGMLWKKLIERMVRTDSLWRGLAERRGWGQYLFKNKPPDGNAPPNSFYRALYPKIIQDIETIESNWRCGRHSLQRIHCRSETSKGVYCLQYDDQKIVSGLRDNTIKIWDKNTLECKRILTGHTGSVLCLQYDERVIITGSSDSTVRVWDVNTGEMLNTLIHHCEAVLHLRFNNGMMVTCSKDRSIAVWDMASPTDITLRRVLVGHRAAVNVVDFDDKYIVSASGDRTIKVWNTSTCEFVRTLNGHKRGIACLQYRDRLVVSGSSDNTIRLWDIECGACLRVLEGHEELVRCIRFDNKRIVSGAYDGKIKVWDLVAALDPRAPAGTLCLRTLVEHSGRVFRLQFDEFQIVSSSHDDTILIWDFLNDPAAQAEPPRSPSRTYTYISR
# UniProt P35222, whole entry: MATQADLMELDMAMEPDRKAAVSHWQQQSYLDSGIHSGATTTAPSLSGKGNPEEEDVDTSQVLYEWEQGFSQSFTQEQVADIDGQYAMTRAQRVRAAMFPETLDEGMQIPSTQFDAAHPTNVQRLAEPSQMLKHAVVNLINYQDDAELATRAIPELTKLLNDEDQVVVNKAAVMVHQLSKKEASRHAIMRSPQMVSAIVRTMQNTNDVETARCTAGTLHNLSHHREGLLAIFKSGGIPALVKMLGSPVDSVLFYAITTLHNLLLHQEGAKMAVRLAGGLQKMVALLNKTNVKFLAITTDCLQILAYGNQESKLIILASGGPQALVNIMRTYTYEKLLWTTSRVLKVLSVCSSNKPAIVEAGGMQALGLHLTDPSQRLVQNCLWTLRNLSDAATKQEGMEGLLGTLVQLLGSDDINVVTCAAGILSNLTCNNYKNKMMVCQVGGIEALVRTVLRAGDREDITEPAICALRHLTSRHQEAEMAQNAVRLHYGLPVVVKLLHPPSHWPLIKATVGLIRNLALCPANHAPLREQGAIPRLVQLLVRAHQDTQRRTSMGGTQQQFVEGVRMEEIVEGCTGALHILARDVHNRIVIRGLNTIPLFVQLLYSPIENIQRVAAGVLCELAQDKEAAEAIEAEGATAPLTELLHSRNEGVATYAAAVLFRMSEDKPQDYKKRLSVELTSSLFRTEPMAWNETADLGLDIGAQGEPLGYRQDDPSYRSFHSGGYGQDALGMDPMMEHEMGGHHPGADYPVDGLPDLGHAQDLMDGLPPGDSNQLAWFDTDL
# UniProt P67775, whole entry: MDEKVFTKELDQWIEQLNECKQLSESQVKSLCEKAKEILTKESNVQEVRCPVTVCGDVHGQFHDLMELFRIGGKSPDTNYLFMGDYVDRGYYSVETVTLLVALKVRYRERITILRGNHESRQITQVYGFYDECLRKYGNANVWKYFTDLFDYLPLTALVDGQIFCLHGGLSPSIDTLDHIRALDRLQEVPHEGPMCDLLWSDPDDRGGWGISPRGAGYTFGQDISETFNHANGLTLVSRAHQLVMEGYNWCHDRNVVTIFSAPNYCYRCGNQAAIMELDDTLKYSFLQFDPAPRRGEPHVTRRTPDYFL
# Results are given in words; binding and its absence hold for the method and conditions named. In cells and extracts the contact can be indirect. Some results given as binding are weak or reduced against the parent protein; the word gives no strength. For some of these results: Where a sequence is shown, tags or fusion partners need not be part of it.
# How the values were obtained:
# [1] = molecular target: T1, GST-WSB1 (recombinant GST-tagged WSB1) (UniProt Q9Y6I7); assay: pull-down
# T1 sequence: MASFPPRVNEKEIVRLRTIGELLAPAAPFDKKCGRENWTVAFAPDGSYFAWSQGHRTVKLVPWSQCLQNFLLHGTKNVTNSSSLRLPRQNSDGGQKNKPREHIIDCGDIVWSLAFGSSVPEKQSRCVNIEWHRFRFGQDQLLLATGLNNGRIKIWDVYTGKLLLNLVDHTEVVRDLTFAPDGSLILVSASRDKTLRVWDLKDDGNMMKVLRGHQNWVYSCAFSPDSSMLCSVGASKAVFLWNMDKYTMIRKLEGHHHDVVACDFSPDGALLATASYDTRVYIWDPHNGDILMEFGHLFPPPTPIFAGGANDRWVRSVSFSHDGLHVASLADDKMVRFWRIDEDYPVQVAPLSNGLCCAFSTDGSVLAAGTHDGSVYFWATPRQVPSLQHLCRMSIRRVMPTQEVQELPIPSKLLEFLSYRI
# [2] = molecular target: T2, WD repeat and SOCS box containing 1 (WSB1), wild type, FLAG-tagged (UniProt Q9Y6I7); assay: co-IP
# T2 sequence: T1 sequence
# [3] = molecular target: AXIN1, wild type, HA-tagged (UniProt O15169); assay: co-IP
Substance,binding [1],binding [2],binding [3]
"glycogen synthase kinase 3β (GSK3β), HA-tagged (from UniProt P49841 1-420) (enzyme)",no binding,,
"AXIN1, endogenous (from UniProt O15169 1-862)",,binds,
"E3 ubiquitin ligase adaptor β-TRCP, HA-tagged (from UniProt Q9Y297 1-605)",,binds,
"AXIN1, wild type, HA-tagged (from UniProt O15169 1-862)",binds,binds,
"β-catenin, endogenous (from UniProt P35222 1-781)",,,binds
"β-TRCP, endogenous (from UniProt Q9Y297 1-605)",,binds,binds
"PPP2CA (catalytic subunit of serine/threonine protein phosphatase 2A), FLAG-tagged (from UniProt P67775 1-309) (enzyme)",,,binds
"PPP2CA, endogenous (from UniProt P67775 1-309) (enzyme)",,,binds
